In the supplement of paper PMC12889115:
The other results are listed elsewhere or left out. These are raw signals, not scaled to a control.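 In the initial screen, polymyxin B was used at a concentration that permeabilizes Salmonella's outer membrane but not its inner membrane. Maximum growth was set by DMSO wells with or without polymyxin B. Since plates varied, data were ranked per plate, and compounds giving the lowest OD600 advanced as hits.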

Test system: Salmonella enterica serovar Typhimurium SL1344
Test: bacterial growth OD600 after 18 h with compound and polymyxin B; higher = more bacterial growth (less inhibition)
Conditions: 50 µM, Mueller-Hinton broth

## CN(C)c1ncc(CN2CCC(Oc3ccccc3C(=O)N3CCCCC3)CC2)s1
Polymyxin B 1 µg/mL
  bacterial growth OD600: 1.21

## CC(C)Nc1ccc(C(=O)N2CCCN(C3CCCCC3)CC2)cn1
Polymyxin B 0.75 µg/mL
  bacterial growth OD600: 0.885

## Cc1ccc(-c2cccc(CN3CCC(N4CCC(C(=O)NC(C)C)CC4)CC3)c2)o1
Polymyxin B 1 µg/mL
  bacterial growth OD600: 0.964

## Cc1cccc(NC(=O)CCC2CCN(C(=O)Cn3cnnn3)CC2)c1
Polymyxin B 1 µg/mL
  bacterial growth OD600: 0.97

## CCC(=O)N1CCOc2c(cc(-c3cccnc3)cc2OCCc2cccs2)C1
Polymyxin B 0.75 µg/mL
  bacterial growth OD600: 0.917

## COC(=O)CCC(=O)N1CCC(Oc2cccc(C(=O)NCc3ccccn3)c2)CC1
Polymyxin B 1 µg/mL
  bacterial growth OD600: 0.854

## CN(C)c1ncccc1CNCc1cccc(Oc2ccccc2)c1
Polymyxin B 0.75 µg/mL
  bacterial growth OD600: 0.682

## O=C(NC1CCCN(CCc2ccccc2)C1)c1ccc(F)c(Cl)c1 (stereo unspecified)
Polymyxin B 0.75 µg/mL
  bacterial growth OD600: 0.002

## CCN(Cc1ccncc1)C(=O)Cn1nnnc1CN1C[C@@H](C)O[C@@H](C)C1
Polymyxin B 0.75 µg/mL
  bacterial growth OD600: 0.836

## Cc1cccc(CN2CCCC3(CCN(c4nc(C)cnc4C)C3)C2=O)c1 (stereo unspecified)
Polymyxin B 1 µg/mL
  bacterial growth OD600: 1.08

## O=C(NCC1CCCN(C(=O)C[n+]2cc([O-])on2)C1)c1cccc2ccccc12 (stereo unspecified)
Polymyxin B 0.75 µg/mL
  bacterial growth OD600: 0.804

## COc1cccc(CC2(CCC(=O)NCC3(c4ccccc4)CCOCC3)CCC(=O)N2)c1 (stereo unspecified)
Polymyxin B 0.75 µg/mL
  bacterial growth OD600: 0.922

## CC1(C)Cc2c(cnn2-c2ccc(F)cc2)C(NC(=O)CCN2CCCCO2)C1 (stereo unspecified)
Polymyxin B 1 µg/mL
  bacterial growth OD600: 0.938

## CN(C)CCNc1ccc(-c2nc(-c3ccccc3F)no2)cn1
Polymyxin B 1 µg/mL
  bacterial growth OD600: 0.956

## Cc1ccccc1CCC1CCCN(C(=O)CCc2cn[nH]c2)C1 (stereo unspecified)
Polymyxin B 0.75 µg/mL
  bacterial growth OD600: 0.706

## COC(=O)CN(C)C(=O)c1coc(COc2cccc(F)c2F)n1
Polymyxin B 0.75 µg/mL
  bacterial growth OD600: 0.876

## Cc1[nH]c2ccccc2c1CC(=O)NCC1Cc2c(F)ccc(-c3ccc(C(N)=O)cc3)c2O1 (stereo unspecified)
Polymyxin B 0.75 µg/mL
  bacterial growth OD600: 0.739

## COc1ccc(C(C)N(C)C(=O)CCC2(Cc3ccc(C)cc3)CCC(=O)N2)cc1 (stereo unspecified)
Polymyxin B 0.75 µg/mL
  bacterial growth OD600: 0.918

## COCCC(=O)N1CCCC(N2CCN(Cc3ccc4c(c3)OCO4)CC2)C1 (stereo unspecified)
Polymyxin B 1 µg/mL
  bacterial growth OD600: 0.861

## CC(C)(C)C(=O)Nc1ccnn1C1CCN(C(=O)Cc2cccnc2)CC1
Polymyxin B 1 µg/mL
  bacterial growth OD600: 0.956

## COCC1CCN(C(=O)c2coc(COc3cccc(C(F)(F)F)c3)n2)C1 (stereo unspecified)
Polymyxin B 1 µg/mL
  bacterial growth OD600: 0.975

## COCCN1CCCC2(CCN(Cc3cccc4nonc34)C2)C1 (stereo unspecified)
Polymyxin B 1 µg/mL
  bacterial growth OD600: 0.87

## Cc1oc(-c2ccccc2NC(=O)CC2CCCC2)nc1CNC(=O)Cn1c(=O)oc2ccccc21
Polymyxin B 0.75 µg/mL
  bacterial growth OD600: 0.781

## CS(=O)(=O)N1CCC(Oc2ccc(C(=O)NC3CCCCC3)cc2Cl)CC1
Polymyxin B 1 µg/mL
  bacterial growth OD600: 1.05

## O=C(c1ccco1)N(C1CC1)C(Cc1ccccc1)C1CCN(Cc2cc(F)ccc2F)CC1 (stereo unspecified)
Polymyxin B 0.75 µg/mL
  bacterial growth OD600: 0.002

## Fc1cccc(CN2CCCC(c3nc(-c4ccncc4)ncc3-c3ccccc3)C2)c1F (stereo unspecified)
Polymyxin B 0.75 µg/mL
  bacterial growth OD600: 0.005

## CC(NC1CCN(c2ccc(CC(=O)N3CCC(O)CC3)cc2)CC1)c1cccc2ccccc12 (stereo unspecified)
Polymyxin B 0.75 µg/mL
  bacterial growth OD600: 0.794

## O=C(c1cnn(Cc2ccccc2)c1)N1CCCC(Nc2ccc3c(c2)OCCO3)C1 (stereo unspecified)
Polymyxin B 1 µg/mL
  bacterial growth OD600: 0.941

## CCCCN(C)c1ccc(C(=O)N2CCCN(c3ncccn3)CC2)cn1
Polymyxin B 0.75 µg/mL
  bacterial growth OD600: 0.782

## Cc1cc(C)n(-c2ccc(C(=O)NCC3Cc4cc(-c5cnccn5)cc(Cl)c4O3)cc2)n1 (stereo unspecified)
Polymyxin B 0.75 µg/mL
  bacterial growth OD600: 0.708

## COc1ccc(CCc2nnc(CCC(=O)NC(C)c3ccc(F)cc3)o2)cc1 (stereo unspecified)
Polymyxin B 1 µg/mL
  bacterial growth OD600: 0.884
